Laboratory results reported in PubChem BioAssay AID1347423 (Functional Genomics Laboratory (NCATS/FGL), 2020).
Out of some 52,000 sequences screened, about 210 (0.4%) were called active.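 How the source made its calls: active means gene whose silencing raises cell survival under the drug, median off-target-corrected z-score across its silencing RNAs 2 or more; inactive means the rest.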 This is one part of the list.

assay: Resistance to Poly (ADP-Ribose) Polymerase inhibitor: Gene Identification via Genome-wide siRNA Screen; conditions: mouse BRCA2 R2336H ES cells, olaparib, CellTiter-Glo viability; hits give high values
Method in brief: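 Mouse BRCA2 R2336H ES cells were reverse-transfected with siRNA (20 nM final), treated at 48 h with 500 nM olaparib, and read by CellTiter-Glo after 72 h. Scores: MAD-based z per siRNA, median per gene, seed off-target correction.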

Sequence | z-score
GCACACUGAAGUGUUUGUATT against Gorasp1 | inactive: 0.247
CGAGCCAUACCUUCAACUGTT against Ncoa2 | inactive: 0.454
GGUGGAAGACUUCAGUGAATT against Clgn | inactive: 0.244
GGAUGUAUGAUGCAGUUAUTT against Olfr1211 | inactive: 0.388
GGUCAAGGCUGUCAAGUUGTT against 0610008N23Rik | inactive: 1.16
CCCAGGUAGAGACAUUGCUTT against 6330444E15Rik | inactive: -0.298
GGAAUGUGACUGGGCUAGATT against 2310047H23Rik | inactive: -0.271
GGAGUCUUGUAAUGAGCUUTT against Zfp54 | inactive: -0.0148
GCAGCAUAUAGAAAACCUATT against Nr1h5 | inactive: 0.917
GCUGAGAGUGAACCGAUGUTT against Dyrk4 | inactive: 0.0203
GGAUCUCACAGUGAAGAAGTT against A930040G15Rik | inactive: -1.3
GGGAAGGAUUAGCAUGUCGTT against Hrsp12 | inactive: 0.0765
GGCUUCUCAGCUAGAAAACTT against 2610528J18Rik | inactive: -0.00214
GGGCUCUGCUAGUUCAAUATT against Lpp | inactive: -2.03
GGUUCUUUGUUACUCUAAGTT against Gabrb3 | inactive: -0.886
GCAGAGAGAGCGUGAAUCCTT against AB124611 | inactive: 0.255
GGAACAAUGCUCAAUUUUUTT against Recc1 | inactive: 0.0368
GGAUCUUUUCAGGUUCUAATT against Olfr659 | inactive: -0.553
GGAAAGUGUUCCGAAUAUUTT against Nipa | inactive: -0.194
GGGUGGAAGUGGAAUUUAUTT against 1700052H20Rik | inactive: -0.15
GGAAGGUGGACAGAUUGCATT against Pfkfb3 | inactive: -0.492
GGUAAAGUUCAAGUUAAGATT against Atp9b | inactive: 0.451

Sequence | z-score
GCACGAAUCAUUGUUCAAATT against 6330407G04Rik | inactive: -0.635
GGAUGAUGUCAGCACUUUUTT against Tbn | inactive: -0.68
GGAAAACCUAGAGAAGCUGTT against Mast1 | inactive: -1.11
CCAUCAUGGCCUUAUCCGUTT against Rfx1 | inactive: 0.291
GGCUUGAGUCCUGAGACCATT against Ifna11 | inactive: 1.04
CCACGAGGAGCUCAUUUUCTT against Dhfr | inactive: 2.45
GGUUUGUCGAAUUGUUGUATT against Ostn | inactive: 0.575
GGCUAUGGAGCACUCACAATT against 2810458H16Rik | inactive: -0.944
GGACUAGCAAGCUCUUCAGTT against Fancd2 | inactive: 1.08
GCUGAAGAAGUGCUCUUCUTT against Rarres2 | inactive: 1.63
CCACCUUCUAUCAGCAAAUTT against 4930433I11Rik | inactive: 3.43
GGAAAGUUACAACAGAUAATT against Pkn2 | inactive: -0.566
GCCAGAAUGGACUUGAGAATT against V1re6 | inactive: -0.0714
GCUGUACACAGUGAGGAAGTT against Gcat | inactive: 0.235
CCGCACCAUUCAGCUUUUUTT against BC025076 | inactive: -1.47
GCGAAAAAGAUCGUCCUUGTT against BC053071 | inactive: 1.11
GCUAUAAUUUGACAGUUAGTT against Lrba | inactive: -0.291
GGAAAUAAGAAUGUAGUGATT against Ahcyl1 | inactive: -0.214
GCAGUACAUAGGACAAUACTT against D7Ertd462e | inactive: 0.284
CCCAUAAUGAUAUAAACCUTT against A430108B07Rik | inactive: -0.15
CCUCACCUAUGGCUAUGUCTT against Itga5 | inactive: -0.583
GGUGGAAUCUCCUGAGAGUTT against Smarcd2 | inactive: 0.697

Some of the entries above in a different format:
Sequence	z-score
GCACGAAUCAUUGUUCAAATT against 6330407G04Rik	inactive: -0.635
CCAUCAUGGCCUUAUCCGUTT against Rfx1	inactive: 0.291
GGACUAGCAAGCUCUUCAGTT against Fancd2	inactive: 1.08
GGAAAGUUACAACAGAUAATT against Pkn2	inactive: -0.566
CCUCACCUAUGGCUAUGUCTT against Itga5	inactive: -0.583

Additional records follow.

Sequence | z-score
CCAUGUGACAAAGCCUACCTT against 6330503C03Rik | inactive: -0.14
GGUUGGUUCUUACUUGAAATT against 2310047O13Rik | inactive: -2
GGAUCAUUGUUCUCUCAAGTT against Tnfsf5ip1 | inactive: -0.523
GGAAGUAGAUUAGAUGGUATT against Akt3 | inactive: 1.13
GGACAGACGAAUUGAAAACTT against 1700095N21Rik | inactive: 0.237
AUGCGUCCUUCACCAACGATT against 2310037P21Rik | inactive: 1.89
GGGCUUUUAUGUUUAACUUTT against Itpr3 | inactive: 1.67
CCAUGUGACAGCAUUGUUGTT against Axin1 | inactive: -1.38
UUCCAAUCCACAUAUGUUUTT against Tusc1 | inactive: -0.231
GGAAAAACAUGUACAAAGATT against Xdh | inactive: 2.39
GCUCUACUGCUUCUUAGUCTT against Olfr965 | inactive: -0.192
GGAGAUGGGCAAAGAGAUCTT against D19Ertd144e | inactive: -0.0448
GGUUCAACAAAACAAAGAGTT against Steap | inactive: -0.0309
GCCCUUAGAAGUCAUUGAGTT against 2700050C12Rik | inactive: -1.13
GGAAAUGGUAGCCAGAGUGTT against LOC212871 | inactive: 0.745
GCCUCCUGAAUGACCACAUTT against Klk27 | inactive: -0.00137
GGUCUCCUAUCAGAAAGCCTT against Dyt1 | inactive: 1.47
GCCUUUAGACUAAACAGCCTT against 2400002F02Rik | inactive: 1.2
GGAUGAACGGAGGAAAAUUTT against Sox13 | inactive: -2.19
GGAGGAGAAAUGGAUCACATT against H2afx | inactive: 0.139
GCUAUCGGGUAUGGUUGCUTT against Prrxl1 | inactive: -0.957
CCUGGAAAGACUCUCGGAGTT against Cln2 | inactive: -0.492
